Measurements from “University of Dundee, Small-Polar-MMV Screening Library” (2021), ChEMBL document CHEMBL3988442.

The filed quantity is “Percent Effect” (%). The record does not define 0% and 100%; most values in the screen are far below 50% and negative numbers occur (in some assays of this library far below -100). This is an unselected part of the compounds tested. Two or more numbers in one place are separate tests of the same structure; such repeats can differ widely.

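Viability assay of Plasmodium falciparum sporozoites; the read-out is not stated. The concentration is filed as 10 mM, unlikely as a test dose, so the dose is not known. The record gives no direction; compounds that gave an IC50 in retests scored well above the rest, so higher reads as lower viability. Strong results were mostly tested again. About 34,000 compounds were tested under these conditions; 0.84% (about 280) showed 50% or more at least once.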

| Compound | Percent Effect |
|---|---|
| `Cn1nc(CNC(=O)NCc2ccc(Cl)cc2)c2c1CCOC2` | -13.52 |
| `CCOc1ccc(C(=O)N(C)Cc2nccn2CC(F)(F)F)cc1` | 20.32 |
| `COc1ccccc1-n1cc(C(=O)NCCn2nc(C)nc2C)cn1` | -1.374 |
| `Cc1oc(-c2ccoc2)nc1CN1CCCCC1CCc1ccccc1` (centres unmarked) | -10.26 |
| `COc1cc(N2CCC3(CC2)CCN(c2cccnc2)C3=O)ncn1.O=C(O)C(F)(F)F` | 5.196 |
| `Cc1cnc(-c2nc(O)c3c(n2)CN(C(=O)C2CCOC2)CC3)cn1` (centres unmarked) | 10.05 |
| `CN1CCCc2cc(CNC(=O)c3cc[n+]([O-])cc3)ccc21` | 8.46 |
| `CN(C)C(=O)COC1COC2(CCN(CC3CCOCC3)CC2)C1.O=C(O)C(F)(F)F` (centres unmarked) | -7.932 |
| `CCc1nccn1-c1nccnc1C1CCCN(C(=O)COC)C1` (centres unmarked) | 6.575 |
| `CN(Cc1ccccn1)C1CC2(CCN(Cc3ccccn3)CC2)C1.O=C(O)C(F)(F)F.O=C(O)C(F)(F)F` | -5.069 |
| `[H][C@@]12CN(CC)C[C@]1(C(=O)NCC1CC1)CCCN2c1ncccn1` | 11.59 |
| `CCc1nnc(CN(C)C(=O)CN2CC(c3ccccc3)CC2=O)o1` (centres unmarked) | -20.48 |
| `Cc1nc(CN2CCCN(C(=O)C3(C#N)CCCCC3)CC2)cs1` | 5.181 |
| `[H][C@@]12C[C@H](C(=O)Nc3cccnc3)[C@@]([H])(CN(S(=O)(=O)C3CC3)C1)O2` | -6.615 |
| `CCCC(=O)N1CCC2(CC1)COC2` | -8.383 |
| `CCn1cc(S(=O)(=O)N2CCC(C3CCCCN(C)C3=O)CC2)c(C)n1` (centres unmarked) | 14.9 |
| `Cn1nc2c(cc1=O)CN(Cc1coc(-c3ccccc3)n1)CC2` | 1.481 |
| `CC(NCc1cnc(C2CCC2)s1)c1cccc(-n2cccn2)c1` (centres unmarked) | 0.2176 |
| `CCN(Cc1ccc(OC)c(F)c1)C(=O)c1ccc(C)[nH]c1=O` | -10.72 |
| `O=C(CCN1CCCC1=O)Nc1cnn(-c2ccccc2Cl)c1` | 13.73 |
| `CCn1ncc2c1CCCC2NCc1csc(C(C)C)n1` (centres unmarked) | 36.34 and 27.4 |
| `COc1ccc(S(=O)(=O)NC(=O)COC2CCCC2)cc1` | -13.01 |
| `CNc1nc(CNC(=O)Nc2cccc(Cl)c2OC)cs1` | 27.11 |
| `Cc1ccc(NC(=O)NCCCn2nc3ccccn3c2=O)cc1` | 1.159 |
| `CCn1nc(C)cc1C(=O)OCCNc1ncnc2ccccc12` | 12.46 |
| `CCN(Cc1ccccc1O)CC1(C)Cc2c(N)nc(N)nc2O1` (centres unmarked) | 15.71 |
| `CCN(CC)C(=O)Cn1c(=O)n(Cc2ccco2)c2ncccc21` | 3.682 |
| `CC(=O)N1CCC(c2cncc(N3CCCC(O)C3)n2)CC1` (centres unmarked) | -4.327 |
| `[H][C@@]12COC[C@]1(CNS(C)(=O)=O)CN(C(=O)c1ccccc1)C2` | -13.07 |
| `CC(NC(=O)NCCCn1cncn1)c1ccc(C(F)(F)F)cc1` (centres unmarked) | -9.741 |
| `Cc1nc(C2CCN(C(=O)c3ccc(=O)n(C)c3)CC2)c2sccn12` | -9.36 |
| `CC(C)CC(=O)N1CC(=O)N(CCc2ccccc2)CC(O)C1` (centres unmarked) | -29.16 |
| `Cn1nc(COc2cccnc2)c2c1CCN(c1ncccn1)C2` | 12.56 |
| `O=C(O)C(F)(F)F.O=C(O)C(F)(F)F.[H][C@]12C[C@@H](CN3CCCC3)N(C)[C@@]1([H])CCN(C(=O)c1cc(C)oc1C)C2` | 7.791 |
| `COCCNC(=O)c1ccc(NCc2csc(C)n2)cc1Cl` | -4.67 |
| `O=C(O)C(F)(F)F.O=C(O)C(F)(F)F.c1ccc(CN2CCC3(CC2)CC(Oc2cccnc2)C3)nc1` | 0.4259 |
| `Cc1ncsc1CCN(C)Cc1cc2n(n1)CCN(Cc1ncc[nH]1)C2` | 11.19 |
| `CCN(CC1CN(Cc2ccccn2)CCO1)c1cccnn1` (centres unmarked) | 1.961 |
| `Cc1ccc(Nc2nccc(C3CN(CC(N)=O)C3)n2)nc1` | 11.72 and 35.19 and 48.34 |
| `Cc1cnn(CC2CN(Cc3nc4ccccc4n3C)CCO2)c1` (centres unmarked) | 4.048 |
| `CCS(=O)(=O)N1CCC2(CC1)CN(c1ccsc1)C(=O)CO2` | -4.21 |
| `Cn1ncc(C(=O)N2CCCC(n3cccn3)C2)c1C1CC1` (centres unmarked) | -17.16 |
| `CC1Cc2ccccc2N1C(=O)Cn1nc(-c2cccs2)cc(N)c1=O` (centres unmarked) | 6.494 |
| `Cc1nc(C2CCCN2CC(=O)N(C)Cc2ccsc2)no1` (centres unmarked) | 8.867 |
| `CCN(Cc1ccc2c(c1)OCO2)S(=O)(=O)N(C)C` | -4.944 |
| `CN(C)CC1CSCCCN1C(=O)c1ccsc1` (centres unmarked) | 6.535 |
| `Cc1n[nH]c(C)c1NC(=O)CN1CCCC1c1c(C)nn(C)c1C` (centres unmarked) | 4.25 |
| `CC(C)Oc1ccc(C(=O)NCc2ccc3c(c2)CCCN3C)cn1` | 9.044 |
| `COc1cc(C(=O)NC(C)c2cccs2)cc2c1OCCO2` (centres unmarked) | 0.6519 |
| `CCCOc1cccc(OCc2ccon2)c1` | -14.79 |
| `O=C(O)C(F)(F)F.O=C(O)C(F)(F)F.[H][C@@]12CCCO[C@]1([H])[C@H](N(C)Cc1ccco1)CN2Cc1ccco1` | 0.1153 |
| `COc1ccc(-n2ccc(C(=O)NCCN3CCCCCC3)n2)cc1` | -0.3253 |
| `CN(C)CC1CSCCCN1C(=O)c1cccc(C(F)(F)F)c1` (centres unmarked) | 7.61 |
| `Cc1nc2c(c(NCCNC(=O)C(C)C)n1)Cc1ccccc1OC2` | -0.8953 |
| `Cc1cnn(CCNCC(=O)NCCOc2ccc(F)cc2)c1` | -6.373 |
| `COCC(C)NC(=O)c1cn(C(C)(C)C)c2ncccc12` (centres unmarked) | -12.25 |
| `CCc1nc(C2CCCN(C(=O)c3cccc(C(N)=O)c3)C2)no1` (centres unmarked) | 14.39 and 2.551 and 15.27 |
| `CC(C)N(C)CC(=O)N1CCCC(n2ccnc2)C1` (centres unmarked) | -12.32 |